Reference: paper doi:10.1101/2022.11.22.517464
Residue numbers refer to the chain shown, from its start. Names may count otherwise. Results are given in words; binding and its absence hold for the method and conditions named. Some binding calls cover weakened binding; strength is not graded here. Each block holds one binder with its values, some of them ahead of it.

Assays:
[1] = biological target: T1, full-length Swi6 (S. pombe) (UniProt P40381); assay: two-hybrid
T1 sequence: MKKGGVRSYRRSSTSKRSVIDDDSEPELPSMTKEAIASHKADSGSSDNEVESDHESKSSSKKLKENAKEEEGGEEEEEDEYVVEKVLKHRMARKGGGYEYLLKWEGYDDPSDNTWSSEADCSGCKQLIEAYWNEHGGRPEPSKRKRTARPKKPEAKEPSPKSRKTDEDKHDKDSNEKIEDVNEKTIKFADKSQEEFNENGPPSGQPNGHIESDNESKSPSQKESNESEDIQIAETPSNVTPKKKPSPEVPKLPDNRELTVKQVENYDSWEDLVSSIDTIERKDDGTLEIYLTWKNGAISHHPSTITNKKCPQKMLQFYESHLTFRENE

[2] = biological target: T2, Swi2C (392–722 aa), purified in complex with Swi5 (S. pombe) (UniProt Q10668); assay: co-purification after co-expression
T2 sequence: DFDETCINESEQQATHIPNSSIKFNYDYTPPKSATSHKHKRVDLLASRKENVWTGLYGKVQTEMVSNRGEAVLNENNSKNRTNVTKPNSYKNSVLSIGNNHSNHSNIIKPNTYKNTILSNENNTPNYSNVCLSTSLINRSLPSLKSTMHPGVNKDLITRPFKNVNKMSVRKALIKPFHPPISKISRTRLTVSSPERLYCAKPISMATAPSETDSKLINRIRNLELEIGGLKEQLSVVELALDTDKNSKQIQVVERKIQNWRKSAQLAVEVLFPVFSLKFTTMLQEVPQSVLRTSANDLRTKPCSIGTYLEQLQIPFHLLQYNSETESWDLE

[3] = biological target: T3, Swi2S (205–722 aa), purified in complex with Swi5 (S. pombe) (UniProt Q10668); assay: co-purification after co-expression
T3 sequence: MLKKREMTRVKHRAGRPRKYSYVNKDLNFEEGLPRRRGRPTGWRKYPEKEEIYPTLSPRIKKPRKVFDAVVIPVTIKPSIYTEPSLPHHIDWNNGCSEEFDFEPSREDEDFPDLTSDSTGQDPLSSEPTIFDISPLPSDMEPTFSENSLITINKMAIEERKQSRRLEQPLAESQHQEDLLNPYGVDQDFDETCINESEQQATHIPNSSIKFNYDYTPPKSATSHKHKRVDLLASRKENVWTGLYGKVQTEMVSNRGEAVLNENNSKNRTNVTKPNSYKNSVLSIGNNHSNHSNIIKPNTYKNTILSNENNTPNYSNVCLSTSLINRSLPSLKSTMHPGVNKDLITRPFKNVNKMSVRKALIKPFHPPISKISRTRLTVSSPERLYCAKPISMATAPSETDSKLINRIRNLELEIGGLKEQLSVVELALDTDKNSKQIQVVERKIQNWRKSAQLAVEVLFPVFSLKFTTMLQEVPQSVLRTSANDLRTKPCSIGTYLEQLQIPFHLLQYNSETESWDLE

[4] = biological target: T4, Swi2CS (607–722 aa), purified in complex with Swi5 (S. pombe) (UniProt Q10668); assay: co-purification after co-expression
T4 sequence: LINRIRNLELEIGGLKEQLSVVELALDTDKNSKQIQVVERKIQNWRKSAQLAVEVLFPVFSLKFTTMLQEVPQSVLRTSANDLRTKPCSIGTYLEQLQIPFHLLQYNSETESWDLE

[5] = biological target: T5, Swi2 (1–722 aa), purified in complex with Swi5 (S. pombe) (UniProt Q10668); assay: co-purification after co-expression
T5 sequence: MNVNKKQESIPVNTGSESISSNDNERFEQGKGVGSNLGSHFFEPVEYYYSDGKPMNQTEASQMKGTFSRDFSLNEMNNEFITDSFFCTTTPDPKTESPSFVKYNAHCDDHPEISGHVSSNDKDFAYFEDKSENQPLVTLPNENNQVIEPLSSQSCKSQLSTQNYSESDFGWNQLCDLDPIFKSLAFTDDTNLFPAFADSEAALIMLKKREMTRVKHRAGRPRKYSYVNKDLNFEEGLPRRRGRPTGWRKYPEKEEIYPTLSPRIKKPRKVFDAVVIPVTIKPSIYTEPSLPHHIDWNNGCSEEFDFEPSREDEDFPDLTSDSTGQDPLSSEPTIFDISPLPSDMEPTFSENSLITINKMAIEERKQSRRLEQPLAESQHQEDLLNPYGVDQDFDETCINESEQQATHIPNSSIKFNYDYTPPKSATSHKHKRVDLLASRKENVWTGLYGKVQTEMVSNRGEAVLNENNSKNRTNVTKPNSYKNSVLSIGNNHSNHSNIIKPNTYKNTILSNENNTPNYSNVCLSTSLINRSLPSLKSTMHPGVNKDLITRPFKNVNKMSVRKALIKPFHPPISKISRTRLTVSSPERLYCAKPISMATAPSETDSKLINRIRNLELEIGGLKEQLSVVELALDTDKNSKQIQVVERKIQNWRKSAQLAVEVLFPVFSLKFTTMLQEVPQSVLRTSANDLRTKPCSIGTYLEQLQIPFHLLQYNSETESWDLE

B1: Swi2 full-length (pGADT7-Swi2 full-length) (protein, UniProt Q10668 1-722)
chain: T5 sequence
binding [1]: binds

B3: Swi2 (1–280) truncation mutant (domain or fragment, UniProt Q10668 1-280)
chain: MNVNKKQESIPVNTGSESISSNDNERFEQGKGVGSNLGSHFFEPVEYYYSDGKPMNQTEASQMKGTFSRDFSLNEMNNEFITDSFFCTTTPDPKTESPSFVKYNAHCDDHPEISGHVSSNDKDFAYFEDKSENQPLVTLPNENNQVIEPLSSQSCKSQLSTQNYSESDFGWNQLCDLDPIFKSLAFTDDTNLFPAFADSEAALIMLKKREMTRVKHRAGRPRKYSYVNKDLNFEEGLPRRRGRPTGWRKYPEKEEIYPTLSPRIKKPRKVFDAVVIPVTI
binding [1]: binds

B4: Swi2 (1–260) truncation mutant (domain or fragment, UniProt Q10668 1-260)
chain: MNVNKKQESIPVNTGSESISSNDNERFEQGKGVGSNLGSHFFEPVEYYYSDGKPMNQTEASQMKGTFSRDFSLNEMNNEFITDSFFCTTTPDPKTESPSFVKYNAHCDDHPEISGHVSSNDKDFAYFEDKSENQPLVTLPNENNQVIEPLSSQSCKSQLSTQNYSESDFGWNQLCDLDPIFKSLAFTDDTNLFPAFADSEAALIMLKKREMTRVKHRAGRPRKYSYVNKDLNFEEGLPRRRGRPTGWRKYPEKEEIYPTL
binding [1]: no binding

Results, then the binder that gave them:

binding [2]: binds | binding [3]: binds | binding [4]: binds | binding [5]: binds
B2: Swi5 (protein, UniProt Q9UUB7 1-85)
chain: MEKSQLESRVHLLEQQKEQLESSLQDALAKLKNRDAKQTVQKHIDLLHTYNEIRDIALGMIGKVAEHEKCTSVELFDRFGVNGSE

binding [1]: no binding
B5: Swi2-V274A (protein, UniProt Q10668 1-722)
chain: T5 sequence with V274A
